Data as given in PMC11833509.
These are yes or no findings as the source states them, for the method shown. In cells and extracts the contact can be indirect. These calls come from enrichment with a bait or labelling near it, and not all partners need be listed.

By UniProt entry, the sequences of proteins in these tests, tags left out.
UniProt O61307: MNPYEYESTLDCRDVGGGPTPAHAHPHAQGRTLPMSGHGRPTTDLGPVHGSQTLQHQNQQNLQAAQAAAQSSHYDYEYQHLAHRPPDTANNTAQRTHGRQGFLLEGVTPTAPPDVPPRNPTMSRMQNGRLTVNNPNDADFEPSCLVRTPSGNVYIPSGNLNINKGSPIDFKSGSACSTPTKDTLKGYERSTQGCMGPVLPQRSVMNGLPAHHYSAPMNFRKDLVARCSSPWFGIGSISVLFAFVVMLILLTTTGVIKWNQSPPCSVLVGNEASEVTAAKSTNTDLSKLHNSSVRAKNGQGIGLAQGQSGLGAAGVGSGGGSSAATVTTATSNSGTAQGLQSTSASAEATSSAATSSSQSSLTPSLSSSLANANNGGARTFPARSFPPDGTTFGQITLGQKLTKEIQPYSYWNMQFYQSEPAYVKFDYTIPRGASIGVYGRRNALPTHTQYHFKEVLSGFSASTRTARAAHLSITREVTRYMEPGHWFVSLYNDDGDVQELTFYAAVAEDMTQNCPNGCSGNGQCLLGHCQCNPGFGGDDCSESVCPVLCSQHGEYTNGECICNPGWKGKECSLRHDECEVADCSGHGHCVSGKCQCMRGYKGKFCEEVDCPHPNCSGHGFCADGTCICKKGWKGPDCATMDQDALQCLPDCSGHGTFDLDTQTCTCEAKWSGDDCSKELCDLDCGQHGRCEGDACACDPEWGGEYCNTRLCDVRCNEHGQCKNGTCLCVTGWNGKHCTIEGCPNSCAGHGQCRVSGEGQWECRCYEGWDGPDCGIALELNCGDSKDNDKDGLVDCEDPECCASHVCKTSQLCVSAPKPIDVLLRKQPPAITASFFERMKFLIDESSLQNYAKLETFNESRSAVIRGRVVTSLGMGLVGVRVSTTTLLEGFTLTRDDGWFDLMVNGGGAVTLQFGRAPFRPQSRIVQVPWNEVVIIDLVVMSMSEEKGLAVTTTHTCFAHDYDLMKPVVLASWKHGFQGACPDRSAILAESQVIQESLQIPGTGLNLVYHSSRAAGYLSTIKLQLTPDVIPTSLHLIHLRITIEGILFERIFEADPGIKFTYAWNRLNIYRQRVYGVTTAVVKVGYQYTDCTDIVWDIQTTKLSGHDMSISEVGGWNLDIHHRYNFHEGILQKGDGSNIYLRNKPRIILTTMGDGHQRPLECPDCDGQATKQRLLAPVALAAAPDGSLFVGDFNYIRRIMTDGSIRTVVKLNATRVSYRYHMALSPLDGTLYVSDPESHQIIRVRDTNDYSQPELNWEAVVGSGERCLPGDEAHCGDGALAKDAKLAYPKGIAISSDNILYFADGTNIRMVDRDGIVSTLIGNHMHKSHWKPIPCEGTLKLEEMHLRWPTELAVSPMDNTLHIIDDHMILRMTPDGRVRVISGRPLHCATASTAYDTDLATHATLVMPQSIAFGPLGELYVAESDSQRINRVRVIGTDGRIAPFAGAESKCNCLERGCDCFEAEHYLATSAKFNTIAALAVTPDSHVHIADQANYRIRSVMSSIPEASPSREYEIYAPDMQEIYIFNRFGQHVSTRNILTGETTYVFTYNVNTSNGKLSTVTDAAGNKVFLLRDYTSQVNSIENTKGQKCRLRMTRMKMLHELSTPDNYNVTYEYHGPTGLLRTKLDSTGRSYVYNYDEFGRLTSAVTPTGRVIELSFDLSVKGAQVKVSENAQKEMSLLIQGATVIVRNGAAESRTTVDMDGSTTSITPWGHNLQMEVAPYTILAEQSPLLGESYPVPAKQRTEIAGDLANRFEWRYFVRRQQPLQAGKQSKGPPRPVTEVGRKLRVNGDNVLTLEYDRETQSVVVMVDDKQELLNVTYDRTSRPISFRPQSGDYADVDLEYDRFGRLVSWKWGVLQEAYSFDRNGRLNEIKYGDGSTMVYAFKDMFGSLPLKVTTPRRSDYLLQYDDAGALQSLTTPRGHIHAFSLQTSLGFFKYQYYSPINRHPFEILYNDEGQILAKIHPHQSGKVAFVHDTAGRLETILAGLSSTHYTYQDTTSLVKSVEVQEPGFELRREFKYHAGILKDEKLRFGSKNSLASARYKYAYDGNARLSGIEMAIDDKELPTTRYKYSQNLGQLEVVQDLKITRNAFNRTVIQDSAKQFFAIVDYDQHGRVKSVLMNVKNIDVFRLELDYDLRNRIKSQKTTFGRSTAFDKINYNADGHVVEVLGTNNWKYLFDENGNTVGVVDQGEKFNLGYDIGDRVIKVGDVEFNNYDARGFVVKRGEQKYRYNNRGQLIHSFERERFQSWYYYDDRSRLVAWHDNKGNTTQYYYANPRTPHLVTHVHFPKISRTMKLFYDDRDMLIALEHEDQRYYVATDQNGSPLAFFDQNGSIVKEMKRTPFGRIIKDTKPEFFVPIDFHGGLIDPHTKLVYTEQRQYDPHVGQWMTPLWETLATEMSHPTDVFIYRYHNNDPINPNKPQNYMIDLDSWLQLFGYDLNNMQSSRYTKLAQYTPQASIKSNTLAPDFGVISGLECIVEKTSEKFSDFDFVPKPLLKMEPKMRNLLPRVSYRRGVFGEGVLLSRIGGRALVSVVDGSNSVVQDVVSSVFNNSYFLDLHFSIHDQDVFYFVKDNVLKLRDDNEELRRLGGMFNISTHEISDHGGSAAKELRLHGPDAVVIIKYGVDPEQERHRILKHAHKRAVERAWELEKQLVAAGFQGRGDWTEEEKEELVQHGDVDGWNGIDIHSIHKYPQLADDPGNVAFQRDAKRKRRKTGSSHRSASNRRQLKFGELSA
UniProt Q9W1B0: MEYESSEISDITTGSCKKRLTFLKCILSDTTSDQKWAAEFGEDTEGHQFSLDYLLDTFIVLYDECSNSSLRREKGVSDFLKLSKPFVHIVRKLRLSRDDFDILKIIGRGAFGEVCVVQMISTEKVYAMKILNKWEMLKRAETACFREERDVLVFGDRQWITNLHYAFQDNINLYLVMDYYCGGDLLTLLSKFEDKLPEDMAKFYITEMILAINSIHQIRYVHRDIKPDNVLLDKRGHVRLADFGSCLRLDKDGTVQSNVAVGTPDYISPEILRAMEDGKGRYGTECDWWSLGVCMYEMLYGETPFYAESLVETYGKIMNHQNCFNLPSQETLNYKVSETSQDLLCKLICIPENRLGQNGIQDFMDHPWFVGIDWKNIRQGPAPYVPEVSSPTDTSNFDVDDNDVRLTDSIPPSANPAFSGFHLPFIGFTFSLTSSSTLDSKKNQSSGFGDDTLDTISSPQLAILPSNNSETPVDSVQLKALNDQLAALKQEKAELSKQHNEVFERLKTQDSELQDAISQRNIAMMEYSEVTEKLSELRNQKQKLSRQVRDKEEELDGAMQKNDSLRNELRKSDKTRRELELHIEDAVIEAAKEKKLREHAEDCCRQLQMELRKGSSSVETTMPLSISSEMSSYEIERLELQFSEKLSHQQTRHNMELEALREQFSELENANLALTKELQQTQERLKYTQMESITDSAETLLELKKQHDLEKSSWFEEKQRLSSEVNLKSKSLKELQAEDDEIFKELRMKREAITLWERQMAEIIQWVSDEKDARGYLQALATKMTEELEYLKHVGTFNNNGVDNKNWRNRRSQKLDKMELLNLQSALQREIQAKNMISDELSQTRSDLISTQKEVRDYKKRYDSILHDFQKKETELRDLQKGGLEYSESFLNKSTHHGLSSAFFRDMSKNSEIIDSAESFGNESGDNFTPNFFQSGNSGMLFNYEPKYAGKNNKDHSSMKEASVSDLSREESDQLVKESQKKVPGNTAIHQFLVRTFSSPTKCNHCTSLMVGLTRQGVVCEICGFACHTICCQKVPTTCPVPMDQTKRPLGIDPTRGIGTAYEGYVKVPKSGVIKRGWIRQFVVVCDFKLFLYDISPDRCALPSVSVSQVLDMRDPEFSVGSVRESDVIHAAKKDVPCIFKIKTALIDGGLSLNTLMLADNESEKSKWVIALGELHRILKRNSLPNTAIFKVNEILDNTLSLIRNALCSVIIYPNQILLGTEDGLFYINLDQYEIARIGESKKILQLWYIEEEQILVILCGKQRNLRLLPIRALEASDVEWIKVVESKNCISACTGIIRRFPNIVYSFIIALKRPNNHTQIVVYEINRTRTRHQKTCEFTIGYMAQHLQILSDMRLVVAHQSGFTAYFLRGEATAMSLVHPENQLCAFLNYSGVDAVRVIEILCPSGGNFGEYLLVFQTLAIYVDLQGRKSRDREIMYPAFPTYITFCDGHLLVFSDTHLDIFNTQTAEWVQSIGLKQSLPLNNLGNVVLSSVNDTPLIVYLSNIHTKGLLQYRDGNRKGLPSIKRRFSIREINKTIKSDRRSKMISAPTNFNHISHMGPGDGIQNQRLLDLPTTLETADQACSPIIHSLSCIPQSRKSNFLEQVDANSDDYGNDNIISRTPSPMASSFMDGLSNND
UniProt Q9V9S7: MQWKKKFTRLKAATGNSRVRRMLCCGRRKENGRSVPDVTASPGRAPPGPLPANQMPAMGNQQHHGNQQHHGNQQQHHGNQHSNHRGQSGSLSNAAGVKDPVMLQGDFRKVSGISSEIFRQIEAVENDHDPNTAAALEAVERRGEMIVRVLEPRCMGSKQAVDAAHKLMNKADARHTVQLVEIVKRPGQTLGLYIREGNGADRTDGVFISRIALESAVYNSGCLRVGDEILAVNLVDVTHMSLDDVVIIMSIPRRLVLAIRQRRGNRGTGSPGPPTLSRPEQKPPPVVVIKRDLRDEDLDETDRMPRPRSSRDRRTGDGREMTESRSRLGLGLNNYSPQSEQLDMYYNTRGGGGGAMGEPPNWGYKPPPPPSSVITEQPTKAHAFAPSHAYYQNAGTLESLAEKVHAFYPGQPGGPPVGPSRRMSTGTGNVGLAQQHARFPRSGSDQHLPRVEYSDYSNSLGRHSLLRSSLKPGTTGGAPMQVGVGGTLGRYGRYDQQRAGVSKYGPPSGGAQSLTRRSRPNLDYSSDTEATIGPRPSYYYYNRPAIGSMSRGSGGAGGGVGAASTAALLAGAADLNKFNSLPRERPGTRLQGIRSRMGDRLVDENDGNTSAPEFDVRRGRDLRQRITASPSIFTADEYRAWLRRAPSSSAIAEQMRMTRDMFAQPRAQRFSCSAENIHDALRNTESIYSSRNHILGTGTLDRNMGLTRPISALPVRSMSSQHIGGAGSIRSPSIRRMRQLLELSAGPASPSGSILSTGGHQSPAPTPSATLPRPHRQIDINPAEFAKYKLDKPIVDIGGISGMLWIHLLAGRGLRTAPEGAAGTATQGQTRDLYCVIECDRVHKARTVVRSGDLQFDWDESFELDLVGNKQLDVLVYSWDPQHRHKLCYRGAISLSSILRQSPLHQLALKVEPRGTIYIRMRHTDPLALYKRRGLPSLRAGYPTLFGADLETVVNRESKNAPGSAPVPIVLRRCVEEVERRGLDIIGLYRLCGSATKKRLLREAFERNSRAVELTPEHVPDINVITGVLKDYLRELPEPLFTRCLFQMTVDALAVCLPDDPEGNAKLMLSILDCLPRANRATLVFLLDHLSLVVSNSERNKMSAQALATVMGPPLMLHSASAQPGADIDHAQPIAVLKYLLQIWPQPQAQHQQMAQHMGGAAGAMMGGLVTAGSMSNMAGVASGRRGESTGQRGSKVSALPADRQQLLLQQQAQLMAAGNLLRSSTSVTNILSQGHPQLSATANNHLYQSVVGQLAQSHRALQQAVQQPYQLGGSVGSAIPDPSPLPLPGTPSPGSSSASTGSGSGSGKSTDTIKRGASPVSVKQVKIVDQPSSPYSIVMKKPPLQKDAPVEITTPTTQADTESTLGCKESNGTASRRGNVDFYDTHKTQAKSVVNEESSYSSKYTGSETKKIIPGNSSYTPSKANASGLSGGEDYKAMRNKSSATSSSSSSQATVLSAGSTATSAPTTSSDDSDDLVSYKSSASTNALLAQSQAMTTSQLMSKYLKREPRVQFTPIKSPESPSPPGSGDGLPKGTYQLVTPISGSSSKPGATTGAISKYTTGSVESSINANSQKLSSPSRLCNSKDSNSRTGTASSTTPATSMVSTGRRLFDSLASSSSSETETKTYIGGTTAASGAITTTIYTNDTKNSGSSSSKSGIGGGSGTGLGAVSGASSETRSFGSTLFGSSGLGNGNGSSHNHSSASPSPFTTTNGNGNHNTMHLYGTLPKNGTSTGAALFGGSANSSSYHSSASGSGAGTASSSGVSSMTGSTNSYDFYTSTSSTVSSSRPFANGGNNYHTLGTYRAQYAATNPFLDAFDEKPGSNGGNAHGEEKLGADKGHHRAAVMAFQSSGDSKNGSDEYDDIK

Target: APEX2-V5-Ten-m (CRISPR knock-in at the endogenous Ten-m locus) (Drosophila melanogaster (endogenous in pupal brain)) (UniProt O61307)
Assay: proximity labelling; APEX2-V5-Ten-m knock-in pupal brains at 48h APF; 100 μM biotin-phenol 1 h on ice, 1 mM H2O2 1 min; streptavidin enrichment, 6-plex TMT LC-MS/MS; ratios against negative control and CD4-APEX2-V5 spatial reference

Genghis Khan (Gek), endogenous (from UniProt Q9W1B0 1-1637)
binding: binds

RhoGAP100F (Syd1), endogenous (from UniProt Q9V9S7 1-1866)
binding: binds
